Data published in publication PMC4482076.
Where a chain is given by its changes, count along the chain named. These are yes or no findings as the source states them, for the method shown. Binding seen in cells or lysates may run through a third protein. Some binding calls cover weakened binding; strength is not graded here. Tags and fused reporters may be left off the sequences shown.

Chains of the proteins cited; added tags and fusions are not shown.
UniProt P38919: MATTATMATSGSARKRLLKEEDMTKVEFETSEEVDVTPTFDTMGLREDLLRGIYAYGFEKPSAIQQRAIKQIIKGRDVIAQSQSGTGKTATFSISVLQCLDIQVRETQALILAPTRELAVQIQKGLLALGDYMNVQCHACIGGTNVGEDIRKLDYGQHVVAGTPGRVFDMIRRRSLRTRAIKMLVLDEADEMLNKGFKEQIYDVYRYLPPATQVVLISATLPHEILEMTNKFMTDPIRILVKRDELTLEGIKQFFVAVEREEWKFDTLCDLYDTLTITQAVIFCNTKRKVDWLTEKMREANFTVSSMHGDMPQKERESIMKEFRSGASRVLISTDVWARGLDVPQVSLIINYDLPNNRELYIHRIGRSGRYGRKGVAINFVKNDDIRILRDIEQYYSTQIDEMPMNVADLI

Tests used:
Assay in all cases: co-IP; FLAG complexes immunoprecipitated with M2 anti-FLAG magnetic beads from RNase A (50 μg/ml) treated HEK293 cell lysates; lysis buffer 50 mM Tris pH 7.2, 150 mM NaCl, 0.5% Triton X-100; beads washed 3x; co-precipitated endogenous eIF4A3 detected by immunoblot
[1] = biological target: T1, FLAG-CWC22 (N171D/K172E) (human) (UniProt Q9HCG8)
T1 sequence: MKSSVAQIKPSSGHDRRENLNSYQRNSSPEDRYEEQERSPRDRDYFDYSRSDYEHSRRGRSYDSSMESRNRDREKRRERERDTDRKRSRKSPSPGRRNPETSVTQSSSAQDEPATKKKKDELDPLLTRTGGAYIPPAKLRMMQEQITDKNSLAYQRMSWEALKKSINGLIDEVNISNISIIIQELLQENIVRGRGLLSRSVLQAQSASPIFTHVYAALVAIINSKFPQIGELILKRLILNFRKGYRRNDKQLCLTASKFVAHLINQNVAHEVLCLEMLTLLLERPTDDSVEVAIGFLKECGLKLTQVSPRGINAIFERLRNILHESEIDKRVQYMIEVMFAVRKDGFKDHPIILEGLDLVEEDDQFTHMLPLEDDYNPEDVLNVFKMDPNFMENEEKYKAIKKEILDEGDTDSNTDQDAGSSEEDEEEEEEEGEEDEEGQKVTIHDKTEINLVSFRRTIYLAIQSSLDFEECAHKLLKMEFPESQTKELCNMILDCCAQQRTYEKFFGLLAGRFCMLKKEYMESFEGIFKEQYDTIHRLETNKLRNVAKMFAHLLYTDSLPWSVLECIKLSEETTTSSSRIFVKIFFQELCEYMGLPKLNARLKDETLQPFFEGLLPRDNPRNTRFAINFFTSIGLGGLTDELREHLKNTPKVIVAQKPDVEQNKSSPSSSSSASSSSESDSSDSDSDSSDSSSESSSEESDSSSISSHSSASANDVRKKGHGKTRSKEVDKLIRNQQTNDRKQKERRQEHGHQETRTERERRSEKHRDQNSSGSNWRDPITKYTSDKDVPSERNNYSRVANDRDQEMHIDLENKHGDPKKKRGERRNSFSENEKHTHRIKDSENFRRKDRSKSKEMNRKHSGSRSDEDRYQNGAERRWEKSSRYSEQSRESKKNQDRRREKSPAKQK

[2] = biological target: T2, FLAG-CWC22 (wild type) (human) (UniProt Q9HCG8)
T2 sequence: T1 sequence with D171N, E172K

[3] = biological target: T3, FLAG-CWC22 (Y133E/R140E) (human) (UniProt Q9HCG8)
T3 sequence: T1 sequence with Y133E, R140E, D171N, E172K

**Q.** Which binding [1] does the source give for “endogenous eIF4A3 (from UniProt P38919 1-411)” here?
**A.** no binding

**Q.** And the binding [2]?
**A.** binds

**Q.** What about the binding [3] of the same substance?
**A.** no binding
